In patent US20240228629A1 (CITY OF HOPE, published 2024):
No constants are given. Whether binding was seen depends on the method and setting. Some binding calls cover weakened binding; strength is not graded here. Each block holds one binder with its values, some of them ahead of it.

Experiments:
[1] = target: T1, EGFR domain IV (human, UniProt P00533 505-645); assay: SPR, EGFR domain IV immobilised on CM5 chip, IgG at 30, 10 and 3 nM, 25 C
T1 construct: Immobilised on a CM5 chip for SPR; also called domain IV of EGFR; EGFR D4

[2] = target: T1, EGFR domain IV; assay: SPR, EGFR domain IV immobilised on a CM5 chip (500 RU), IgG injected in HBS-EP+, 25 C
[3] = target: EGFR-His (UniProt P00533); assay: ELISA with various recombinant proteins
[4] = target: EGFR-His (UniProt P00533); assay: ELISA on coated recombinant proteins, title "Titer of purified mAb"

binding [1]: binds
binding [2]: binds
B1: EGFRD4-30Ab (antibody, V domains shown)
VH: DVQLQESGPDLVKPSQSLSLTCTVTGYSITSGDSWHWIRQFPGNKLEWMGYIHYSGSTKYNPSLKSRISITRDTSKNQFFLQLNSVTTEDTATYYCASWFYYAMDYWGQGTSVTVSS
VL: ENVLTQSPAIMSASPGEKVTMTCRASSSVSSSYLHWFQQKSGASPKLWIYSTSNLASGVPARFSGSGSGTSYSLTISSVEAEDAATYYCQQYSGFPLTFGAGTKLELK

binding [3]: binds
binding [4]: binds
B2: 5C8 hybridoma clone antibody (mouse, culture supernatant) (antibody, V domains shown)
VH: EVQLQQSGPELVKTGASVKISCKASGYSFTGYYMHWVKQSHGKSLEWIGYINCYNGAINYNQKFKGKATFTVDTSSSTVYMQFNSLTSEDSAVYYCVRAGIHYDYDEAWFAYWGQGTLVTVSA
VL: QAVVTQESALTTSPGETVTLTCRSSTGPVIIRNYANWVQEKPDHLFTGLIGGTNNRAPGVPARFSGSLIGDKAALTITGAQTEDEAIYFCALWYNNHWVFGGGTKLTVL
notes: Mouse antibody from hybridoma supernatant; also called 5C8 clone; Clone 5C8

binding [1]: binds
binding [2]: binds
B3: EGFRD4-28Ab (antibody, V domains shown)
VH: EVQLQQSGPELVKPGASVKISCKASGYSFTGYYMHWVKQSHVKSLEWIGRINPYNGATIYNQNFKDKASLTVDKSSSTAYMELHSLTSEDSAVYYCARDDYEGAMDYWGQGTSVTVSS
VL: NIMMTQLPSSLAVSAGEKVTMSCKSSQSVLYISNQKNYLAWFQQKPGQSPKLLIYWASTRESGVPDRFTGSGSGTDFTLTISSVQAEDLAVYYCHQYFSSYTFGGGTKLEIK

binding [1]: binds
binding [2]: binds
B4: EGFRD4-34Ab (antibody, V domains shown)
VH: QIQLVQSGPELKKPGETVKISCKASGYTFTNYGMNWVKQAPGKGLKWMGWINTYTGDPTYADDFKGRFAFSLETSASTAYLQINNLKNEDMATYFCARRISTMITTWFAYWGQGTLVTVSA
VL: DIQMTQSPASLSASVGETVTITCRASENIYSYLAWFQQRQGKSPQLLVYNAKTLTEGVPSRFSGSGSGTQFSLKINSLQPEDFGSYYCQHYQVTPYTFGGGTKLEIK
notes: also called Clone # 34
